Test results published in patent US10392371B2, “Compounds useful as modulators of TRPM8” (Senomyx, Inc., priority 2015, dated 2019).

Test: Sensory evaluation by quantitative descriptive evaluation technique (ten trained panelists, 15-point linescale)
Type: in vivo, human
Parameters: key: the Duncan's levels are reported as Levels A, B, and C; the Duncan's levels are reported as Levels A, B, and C; the Duncan's levels are reported as Levels A, B, and C
Conditions: Duncan's multiple comparison level, alpha 5%
Method: Compounds 102-105 and Comparative Compound 1 were evaluated using a quantitative descriptive evaluation technique. Ten panelists participated in the study. These panelists previously underwent extensive training in the use of standardized vocabulary to describe the appearance, aroma, flavor, and texture of a variety of products. Data collection was conducted over a period of seven days, with panelists evaluating two samples on each day of testing. Two evaluations were obtained from each panelist for each compound yielding a total of 20 evaluations per compound. During the data collection, the panelists were give a list of attributes and instructed to indicate the intensity of each attribute by indicating the intensity on a 15-point linescale. The intensity was evaluated for the following time periods: in-mouth, after expectoration, and 30 seconds, 1, 2, 5, 10, 15, 30, 45, and 60 minutes into the aftertaste period.
Compounds 102, 103, and 105 were prepared as 5 μM solutions and Compound 104 and Comparative Compound 1 were prepared in 3 μM solutions. 15 mL aliqouts of the test solutions were administered to Panelists in 1 oz. plastic cups coded with a random 3-digit code. The Panelists refrained from brushing their teeth, eating, and drinking one hour before each evaluation. Mean intensities were calculated based on the Panelists responses for each sensory characteristic. The sensory characteristics evaluated were bitter, icy cool in mouth, numbing, cooling breathe in, total burning, alcohol burning, pepperine/capsaicin, tingling, and total trigeminal impact. For each sensory characteristic, the scale of the intensity was designed to cover a range encompassing the universe of products having the indicated sensory characteristic.
After mean intensities for each attribute were calculated, statistical significance for each mean intensity was calculated using analysis of variance (ANOVA) followed by Duncan's multiple comparison test at an alpha level of 5%. […] In the results provided herein, the Duncan's levels are reported as Levels A, B, and C.
Panelists were asked to assess the intensity of both capsaicin-like burning and Alcohol-like Burning sensations for Compounds 102 and 103 and Comparative Compound 1. Capsaicin-like burning is the sensation of warming or burning in the mouth, reminiscent of black pepper or hot sauce while alcohol-like burning is the sensation of warming or burning in the mouth, reminiscent of an alcohol burn. The combination of the intensity of these sensations was used to assess the total burning for the tested compounds. The average total burning after expectoration to 60 minutes was lower for both 5 μM Compound 102 and 5 μM Compound 103 as compared to 3 μM Comparative Compound 1.
The total intensity of trigeminal nerve feeling factors on the soft tissues of the mouth, including numbing, cooling (without breathing in), irritation, warming, burning, and tingling were determined for Compounds 102 and 103 and Comparative Compound 1. The average total trigeminal impact after expectoration to 60 minutes was lower for both 5 μM Compound 102 and 5 μM Compound 103 as compared to 3 μM Comparative Compound 1.
Icy cool in mouth is the sensation of coolness of the mouth, perceived with the mouth closed, not related to the temperature of the sample. Panelists were asked to assess the sensation of icy cool in mouth for Compound 104 and Compound 105 from the time immediately after expectoration of the sample through 60 minutes after expectoration. The average Icy Cool after expectoration to 60 minutes was higher for both 5 μM Compound 105 and 3 μM Compound 104 as compared to 3 μM Comparative Compound 1.
Cooling Breath In is the sensation of coolness of the mouth, when inhaling through the mouth, not related to the temperature of the sample. […]

| Compound | Total Burning, Duncan's (5%) (5 μM solution) | Total Trigeminal Impact, Duncan's (5%) (5 μM solution) | Cooling Breath In, Duncan's (5%) (3 μM solution) | also measured |
| --- | --- | --- | --- | --- |
| O=C(COc1ccc(F)cc1)N(Cc1cccs1)c1cc[nH]n1 [Compound 102, 2-(4-flourophenoxy)-N-(1H-pyrazol-5-yl)-N-(thiophen-2-ylmethyl)acetamide] | A | A | – | Tingling, Duncan's (5%) (5 μM solution): A |
| Cc1ccc(OCC(=O)N(Cc2cccs2)c2ccn[nH]2)cc1 [Comparative Compound 1, reference compound] | – | – | B | Numbing, Duncan's (5%) (3 μM solution): B; Total Burning, Duncan's (5%) (3 μM solution): B; Total Trigeminal Impact, Duncan's (5%) (3 μM solution): B |
| Cc1ccc(OCC(=O)N(Cc2cccs2)c2cc[nH]n2)cc1C [Compound 105, 2-(3,4-dimethylphenoxy)-N-(1H-pyrazol-3-yl)-N-(thiophen-2-ylmethyl)acetamide] | – | – | – | Cooling Breath In, Duncan's (5%) (5 μM solution): C |
| COc1ccc(OCC(=O)N(Cc2cccs2)c2cc[nH]n2)cc1 [Compound 103, 2-(4-methoxyphenoxy)-N-(1H-pyrazol-3-yl)-N-(thiophen-2-ylmethyl)acetamide] | A | A | – | Numbing, Duncan's (5%) (5 μM solution): A |
| CCc1ccc(OCC(=O)N(Cc2cccs2)c2cc[nH]n2)cc1 [Compound 104, 2-(4-ethylphenoxy)-N-(1H-pyrazol-3-yl)-N-(thiophen-2-ylmethyl)acetamide] | – | – | C | – |
